Measurements: paper PMC12040169 (PLOS Biology, 2025)
This is one part of the list.

Test system: T1, CTL2-GFP (C. trachomatis L2/434/Bu, GFP-expressing)
T1 construct: L2/434/Bu, GFP-expressing
Parameters: species or system HeLa; Intracellular C. trachomatis growth in HeLa cells, bulk GFP fluorescence relative to DMSO
Conditions: bulk GFP, single well; 28.5 h, 10 µM; inhibitor

Structure (SMILES)	% of control remaining
Cc1nc2c(c(=O)[nH]1)CCN(C(=O)c1cc3c(s1)CCC3)C2 [CBK283751]	74.7094%
CC(=O)N1CCC2(C/C=C/C[C@H]3CN(CCCc4ccccc4)CC[C@H]3NC(=O)CNC2=O)CC1 [CBK292140]	123.001%
COc1ccc2[nH]c3c(c2c1)CCN(C(=O)CNCc1ccc(OC)c(OC)c1)C31CCN(CCOc2ccccc2)C1 (stereo not shown) [CBK076736T]	94.2239%
O=C(/C=C/c1cn(-c2ccccc2)nc1-c1cc2ccccc2oc1=O)NCc1ccccc1 [CBK266530]	120.485%
CSc1sc(NC(=O)Nc2cccc(C(F)(F)F)c2)cc1C#N [CBK017114]	75.1433%
Cc1cn(C2CC(O)C(CN=[N+]=[N-])O2)c(=O)[nH]c1=O (stereo not shown) [CBK201256]	89.9802%
Cc1n[nH]c(O)c1C(c1ccc(OC(=O)c2ccccc2Cl)cc1)c1c(C)n[nH]c1O [CBK264520]	123.599%
O=C(Oc1cccc2cccnc12)c1cc(S(=O)(=O)N2CCOCC2)ccc1Cl [CBK263210]	113.888%
CC(=O)c1c(-c2ccc(C)cc2)nc2n(CCN3CCCCC3)c3ccccc3n12 [CBK278231C]	100%
CCN(CC)CC(=O)Nc1sc2c(c1C#N)CCCC2 [CBK261646]	100%
CCn1cc(CN2CCC(O)(c3ccc(C)cc3)CC2)c(C)n1 [CBK282955]	141.088%
Cc1c(-c2cc(C(=O)NC(C)C3CC4CCC3C4)no2)cnn1C (stereo not shown) [CBK281653]	127.165%
CNCC1CCN(C(=O)c2ccc(Oc3cccnc3)cc2)C1 (stereo not shown) [CBK304697]	131.826%
COCCNC(=O)c1cc(C2CC2)nc2c1cnn2C(C)C [CBK306099]	114.882%
O=C(NC1CCCCC1)O[C@@H]1CO[C@H]2[C@@H]1OC[C@@H]2Nc1nccc(-c2cccs2)n1 [CBK289514]	110.678%
O=C1CN(c2cccc(C(F)(F)F)c2)C(=O)N1c1ccc(Cl)cc1 [CBK122769]	100.164%
C=CCN1C(=O)CC2(C1=O)C(=O)N(C)c1ccc(OC)cc12 (stereo not shown) [CBK075158]	99.3452%
O=C(O)CCSc1nc(-c2ccccc2)c(-c2ccccc2)n1-c1ccccc1 [CBK264837]	80.0409%
Cc1ccc(NC(=O)CSc2nnc(C(O)c3ccccc3)n2-c2ccccc2)c(C)c1 (stereo not shown) [CBK266072]	135.769%
CC(=O)NCC1CCC2(CCN(c3nc(C)nc(C)c3C)CC2)O1 (stereo not shown) [CBK307404]	133.793%
CN(C)CCNc1c(N)c(=O)oc2ccccc12 [CBK261472]	116.091%
CCNC(=O)N(C)C1CCN(c2ncnc3ccccc23)CC1 [CBK305537]	114.42%
CSc1ccccc1C(=O)N1CCN(S(=O)(=O)c2sc(C(=O)O)c(C)c2C(=O)O)CC1 [CBK297149]	137.566%
CCOC(=O)CCCCNC(O)C(Cl)(Cl)Cl (stereo not shown) [CBK261003C]	103.06%
O=C(O)CCC(=O)Nc1ccc2c(c1)oc1ccccc12 [CBK261597]	118.345%
C[C@@H](Nc1cncc(-c2ccncc2)n1)c1ccccc1 [CBK066055]	155.43%
O=C(Cc1ccccc1[N+](=O)[O-])NNC(=S)Nc1ccc(F)c(Cl)c1 [CBK266904]	124.491%

Structure (SMILES)	% of control remaining
C[C@@H](Nc1cncc(-c2cccc3ccccc23)n1)c1ccccc1 [CBK065646]	144.522%
C[C@@H](Cn1nc(-c2cccs2)oc1=O)NC(=O)C1CCCC1 [CBK284337]	139.79%
CC(C)[C@H](CO)Nc1nccnc1-c1ccc(C(=O)N2CCOCC2)cc1 [CBK037012]	174.937%
Cc1ccc(S(=O)(=O)n2nncc2C)cc1 [CBK001921]	106.672%
C[C@@H](Nc1cncc(-c2ccc3c(c2)OCO3)n1)c1ccccc1 [CBK065954]	93.1002%
CC(=O)Nc1cccc(C(=O)N(Cc2ccccn2)CC2CCCO2)c1 (stereo not shown) [CBK306867]	158.422%
CN(C)CCN(C)c1nc(-c2cc(C(F)(F)F)cc(C(F)(F)F)c2)cn2ccnc12 [CBK037971]	150.368%
COc1ccc([C@@]23CC[C@@H](CNC(=O)c4ccc(C(F)(F)F)cc4)C[C@@H]2N(C)CC3)cc1OC [CBK042195]	120.69%
O=C(Cc1ccccn1)NC(Cc1ccsc1)c1nccs1 (stereo not shown) [CBK282821]	121.429%
CC(=O)C(C)Oc1ncn(-c2ccccc2)n1 (stereo not shown) [CBK008377]	136.796%
CN1CCN(CCC(=O)Nc2cccc(Cl)c2)CC1 [CBK070793C]	111.633%
O=C(Cn1nc(-c2cc3c(s2)CCC3)oc1=O)N1CCCC1 [CBK284712]	129.505%
Cc1cc(C)c(C)c(S(=O)(=O)Nc2ccc(O)c(Sc3nc[nH]n3)c2)c1C [CBK267012]	179.16%
Cc1ccc2oc(C(=O)N(CCO)CCc3ccncc3)c(C)c2c1 [CBK281642]	116.923%
Cc1cc(C)cc(Nc2c(-c3ccc(C(=O)O)cc3)nc3cnccn23)c1 [CBK287166]	133.548%
Cc1cccc(OCC(=O)NCC(c2cccs2)N2CCOCC2)c1 (stereo not shown) [CBK305426]	122.9%
Cc1ccc(NC(=O)c2ccc3ccccc3n2)c(C)n1 [CBK200293]	183.515%
CC(NC(=O)COc1ccc(Br)cc1)C(=O)O (stereo not shown) [CBK262083]	102.762%
O=C1NCC2(CCN(C(=O)C3CCCC3)CC2)Oc2ccccc21 [CBK282920]	114.382%
O=C1NC(=O)C(CC(=O)N2CCC3(CCN(C(=O)Cc4c[nH]c5ccccc45)C3)C2)N1 (stereo not shown) [CBK131436]	111.191%
C=Cn1cc(CN2CCN(C3CCCCC3)C(=O)C2)c(C)n1 [CBK282561]	122.374%
Cn1c(=O)n(CC(N)=O)c(=O)c2c1nc1oc(C(C)(C)C)cn12 [CBK306081]	99.5911%
CC(c1ccc(F)c(F)c1)N(C)C(=O)Cn1ncn(C)c1=O (stereo not shown) [CBK305083]	124.878%
Cc1ccc(S(=O)(=O)N(C)c2c(C)ccc(S(=O)(=O)N(C)CCO)c2C)cc1 [CBK264970]	116.666%
Cn1cc(CNCc2ccc(N3CCCC3)nc2)c(-c2cccnc2)n1 [CBK306312]	81.8158%
Cc1cc(C)nc(NC(=O)OCCc2cccnc2)c1 [CBK138234]	98.051%
O=C(Nc1cccc2ncccc12)c1ccnc(N2CCOCC2)c1 [CBK287882]	106.516%

Structure (SMILES)	% of control remaining
Cc1ccc2[nH]c(/C(C#N)=C\c3cc(C)n(-c4ccc(S(N)(=O)=O)cc4)c3C)nc2c1 [CBK267611]	132.218%
CN1CCCCCC1c1nc(-c2c[nH]c3ccccc23)nn1CCO (stereo not shown) [CBK306988]	93.1959%
CC(=O)N1CCN(Cc2c(C(F)(F)F)[nH]c3ncc(C)cc23)CC1 [CBK284768]	135.85%
COC(=O)CNC(=O)CNS(=O)(=O)c1ccc(C(C)=O)cc1 [CBK044117]	85.5882%
CC(=O)N1C2CCC1CC(O)(Cn1ccc3ccnc(Cl)c31)C2 (stereo not shown) [CBK284868]	101.503%
Cc1ccc(NC(=O)c2nccc3ccccc23)c(C)n1 [CBK200294]	175.502%
O=C(CN1C(=O)c2ccncc2C1=O)Nc1ccccn1 [CBK288624]	121.108%
Cc1nc2ccccc2n1CC(=O)N(CCC#N)Cc1ccco1 [CBK306323]	139.324%
Cc1ccc(F)c(OC2(C(=O)O)CCN(Cc3cnc(C)nc3)CC2)c1 [CBK306860]	125.32%
NC(=O)c1ccccc1NC(=O)CCSc1ccc([N+](=O)[O-])cc1Cl [CBK266396]	134.943%
CCN(CC)CCn1c(NC(=O)CCC2CCNC2)nc2ccccc21 (stereo not shown) [CBK304693]	119.962%
Cc1ccc2c(c1)c(=O)cc(C(F)(F)F)n2CCNC(=O)C1CC1 [CBK284831]	131.443%
Cc1ccc(S(=O)(=O)NC(C)(C)CSc2ccccn2)cc1 [CBK266360]	213.096%
O=C(Cn1cnnn1)N1CCc2ccccc2C1 [CBK200335]	161.142%
CCN(CC)CCNC(=O)N1CCN(c2ccccc2)CC1 [CBK155202]	78.4235%
CCC(C)c1ccc(OCC(=O)Nc2ccc3[nH]c(=O)[nH]c3c2)cc1 (stereo not shown) [CBK266911]	139.87%
Cn1c(SCc2cccnc2)nnc1-c1cccs1 [CBK067706]	137.256%
O=C(Cn1cnnn1)NCc1cccnc1OCC(F)(F)F [CBK306467]	144.432%
c1ccc(OCCOc2nccnc2-c2ccc3c(c2)OCO3)cc1 [CBK106714]	100%
Nc1cc2cc(F)ccc2nc1C1CCN(C(=O)C2CC2)CC1 [CBK284657]	138.05%
O=C(O)CC/C(=N\NC(=O)c1cccnc1)c1ccccc1 [CBK261305]	97.4465%
COc1c(C)cccc1C(=O)N1CCCC(c2ccc(Nc3nc(C)cc(C)n3)cn2)C1 (stereo not shown) [CBK285989]	73.4972%
CCc1nc2ccccc2n1CC(=O)N(Cc1cccnc1)C1CC1 [CBK304064]	100.155%
COc1ccc(NC(=O)[C@@H]2C=CCN2C(=O)C2CC2)cc1 [CBK284277]	67.1066%
OCC1CCCN1c1cncc(-c2cccc3ccccc23)n1 (stereo not shown) [CBK065509]	144.531%

In a second layout: entries from further up.

| Structure (SMILES) | % of control remaining |
| --- | --- |
| COc1ccc([C@@]23CC[C@@H](CNC(=O)c4ccc(C(F)(F)F)cc4)C[C@@H]2N(C)CC3)cc1OC [CBK042195] | 120.69% |
| O=C(Cc1ccccn1)NC(Cc1ccsc1)c1nccs1 (stereo not shown) [CBK282821] | 121.429% |
| CC(=O)C(C)Oc1ncn(-c2ccccc2)n1 (stereo not shown) [CBK008377] | 136.796% |
| CN1CCN(CCC(=O)Nc2cccc(Cl)c2)CC1 [CBK070793C] | 111.633% |
| O=C(Cn1nc(-c2cc3c(s2)CCC3)oc1=O)N1CCCC1 [CBK284712] | 129.505% |
| Cc1cc(C)c(C)c(S(=O)(=O)Nc2ccc(O)c(Sc3nc[nH]n3)c2)c1C [CBK267012] | 179.16% |
| Cc1ccc2oc(C(=O)N(CCO)CCc3ccncc3)c(C)c2c1 [CBK281642] | 116.923% |
| Cc1cc(C)cc(Nc2c(-c3ccc(C(=O)O)cc3)nc3cnccn23)c1 [CBK287166] | 133.548% |
| Cc1cccc(OCC(=O)NCC(c2cccs2)N2CCOCC2)c1 (stereo not shown) [CBK305426] | 122.9% |
| Cc1ccc(NC(=O)c2ccc3ccccc3n2)c(C)n1 [CBK200293] | 183.515% |
| CC(NC(=O)COc1ccc(Br)cc1)C(=O)O (stereo not shown) [CBK262083] | 102.762% |
| O=C1NCC2(CCN(C(=O)C3CCCC3)CC2)Oc2ccccc21 [CBK282920] | 114.382% |
| O=C1NC(=O)C(CC(=O)N2CCC3(CCN(C(=O)Cc4c[nH]c5ccccc45)C3)C2)N1 (stereo not shown) [CBK131436] | 111.191% |
| C=Cn1cc(CN2CCN(C3CCCCC3)C(=O)C2)c(C)n1 [CBK282561] | 122.374% |
| Cn1c(=O)n(CC(N)=O)c(=O)c2c1nc1oc(C(C)(C)C)cn12 [CBK306081] | 99.5911% |
| CC(c1ccc(F)c(F)c1)N(C)C(=O)Cn1ncn(C)c1=O (stereo not shown) [CBK305083] | 124.878% |
| Cc1ccc(S(=O)(=O)N(C)c2c(C)ccc(S(=O)(=O)N(C)CCO)c2C)cc1 [CBK264970] | 116.666% |
| Cn1cc(CNCc2ccc(N3CCCC3)nc2)c(-c2cccnc2)n1 [CBK306312] | 81.8158% |
| Cc1cc(C)nc(NC(=O)OCCc2cccnc2)c1 [CBK138234] | 98.051% |
| O=C(Nc1cccc2ncccc12)c1ccnc(N2CCOCC2)c1 [CBK287882] | 106.516% |
| Cc1ccc2[nH]c(/C(C#N)=C\c3cc(C)n(-c4ccc(S(N)(=O)=O)cc4)c3C)nc2c1 [CBK267611] | 132.218% |
| CN1CCCCCC1c1nc(-c2c[nH]c3ccccc23)nn1CCO (stereo not shown) [CBK306988] | 93.1959% |
| CC(=O)N1CCN(Cc2c(C(F)(F)F)[nH]c3ncc(C)cc23)CC1 [CBK284768] | 135.85% |
| COC(=O)CNC(=O)CNS(=O)(=O)c1ccc(C(C)=O)cc1 [CBK044117] | 85.5882% |
| CC(=O)N1C2CCC1CC(O)(Cn1ccc3ccnc(Cl)c31)C2 (stereo not shown) [CBK284868] | 101.503% |
